Results are given in words; binding and its absence hold for the method and conditions named. Binding can be weak; no strength is given. Tags and fused reporters may be left off the sequences shown.

Chains of the proteins cited; added tags and fusions are not shown. Lines headed by an entry give the natural chain unless they say otherwise; changes in a name come on top.
UniProt Q9I040: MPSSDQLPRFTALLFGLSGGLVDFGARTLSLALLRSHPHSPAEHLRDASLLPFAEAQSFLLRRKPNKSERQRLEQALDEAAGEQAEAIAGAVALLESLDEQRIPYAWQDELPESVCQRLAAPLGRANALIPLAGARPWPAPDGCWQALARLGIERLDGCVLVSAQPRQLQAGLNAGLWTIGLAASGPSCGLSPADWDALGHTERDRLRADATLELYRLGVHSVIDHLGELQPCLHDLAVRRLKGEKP

For three molecules, binding results are on record in article doi:10.1101/2025.05.13.653872.

In this assay the target is T25-PcrP, bacterial two-hybrid fusion (P. aeruginosa PAO1) (UniProt Q9I040). Briefly: two-hybrid; bacterial two-hybrid (BACTH) in E. coli BTH101, pcrP in pKT25 and partners in pUT18C, 0.5 mM IPTG, 30°C; blue/white colonies on X-gal and β-galactosidase activity (Miller units).

B1: T18-PqsD, bacterial two-hybrid fusion (protein, UniProt P20582 1-337)
chain: MGNPILAGLGFSLPKRQVSNHDLVGRINTSDEFIVERTGVRTRYHVEPEQAVSALMVPAARQAIEAAGLLPEDIDLLLVNTLSPDHHDPSQACLIQPLLGLRHIPVLDIRAQCSGLLYGLQMARGQILAGLARHVLVVCGEVLSKRMDCSDRGRNLSILLGDGAGAVVVSAGESLEDGLLDLRLGADGNYFDLLMTAAPGSASPTFLDENVLREGGGEFLMRGRPMFEHASQTLVRIAGEMLAAHELTLDDIDHVICHQPNLRILDAVQEQLGIPQHKFAVTVDRLGNMASASTPVTLAMFWPDIQPGQRVLVLTYGSGATWGAALYRKPEEVNRPC
B1: the binding entry is given as “no binding”.

B2: T18-PhnA, bacterial two-hybrid fusion (protein, UniProt P09785 1-530)
chain: MGARRWLVSGVGYRLEESLEYRTLVPEALSIWRMAGANRMLFDCFDVDSKAARRSVAILSSCLRIECWGRDVVLRALNSNGRALLAPLSEDCPAQVTCLRDGDTLHWRFPQEESHADEWRRLHGLSSLEALRRVLGTLGDAEGPVLLGGLFSFDLAEQFEPLPAPAEPARHCPDYLFLVPELLLDIDHLARRTSLQAFVHDPAGHDRLAASLRQCADEFHGAVEEASESPVAGVRAGNYQVDLDDASFARQVERLQAHVRAGDVFQIVPSRSFSMPCADPWRAYRQLCLRNPSPYRFFLDAGDFCLFGASPESALKYDAESREVELYPIAGTRPRGRDARGAIDAELDNRLEAELRLDAKEIAEHMMLVDLARNDLARVCRSGTRQVRDMLKVDRYSHVMHLVSRVAGELHGELDALHAYRACLNMGTLVGAPKVRAMQLLRQYEDGYRGSYGGAIGILDSAGNLDTSIVIRSAEVREGIARVRAGAGVVLDSDPRLEAEETRNKALAVLTAVAAAERERGERDAHHAVG
As for B2, the binding result is listed as “no binding”.

B3: T18-PA3518, bacterial two-hybrid fusion (protein, UniProt Q9HY91 1-328)
chain: MNTRNFSLPQLQNLPIEEARIVADALAVHATSRQIDSAASKLAALAEAGLKGDRQAYAAYQQLLYVLSLSDDVATAQTRRWLARAIYRVEERFMPAADLSRALSEEDFQKRLEQEIAAQSRERHPMSQYVFSGSASRAQLQVFLRHQWFRTFRLYRDAADLLVNLTDVDEAAALARYLYGELGEEDEKGSHPRLLAKLLEAIGLEADFQAVSTMPEEIAYLNNRARAFRHAEVGWGLAVFYITELVVPGNHEKLYRALLQAGLSEDQAEYYKVHISLVPPRAKREWQLIARRIPDVQFQNAFLTSLSQHFRVERAYYDAIWEEMQSVK
B3: the binding result was “binds”.
